Laboratory results from PMC7819943, “Rice protein-binding microarrays: a tool to detect cis-acting elements near promoter regions in rice”.
The list shows a part of the results.

Amino acid sequences for entries named in this document (tags omitted).
UniProt Q0JBA9, entry or part of it: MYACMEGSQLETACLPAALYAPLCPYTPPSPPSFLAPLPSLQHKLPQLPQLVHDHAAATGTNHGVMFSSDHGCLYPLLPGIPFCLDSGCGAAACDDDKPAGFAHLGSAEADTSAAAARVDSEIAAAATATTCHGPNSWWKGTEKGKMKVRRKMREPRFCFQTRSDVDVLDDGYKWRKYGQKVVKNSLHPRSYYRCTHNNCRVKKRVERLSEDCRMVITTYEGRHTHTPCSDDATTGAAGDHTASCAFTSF

Target: OsWRKY34 (Oryza sativa, UniProt Q0JBA9 1-250)
Assay: protein-binding microarray (RPBM); PBS, 2% BSA, 51.3 ng/ul salmon testes DNA, 50 uM zinc acetate, 200 nM TF, 25 C, 1 h; high values mean tight binding
Conditions: protein: recombinant; tags: N-terminal polyhistidine and DsRed monomer fusion (pET32a); label: CyDye5-dUTP incorporated in the synthesized complementary strand; 3' TTTTT single-stranded linker to array surface; dsDNA, one strand shown
Procedure, shortened: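 In PBS with 2% BSA, salmon testes DNA and 50 µM zinc acetate, 200 nM protein was incubated on a custom Agilent array at 25 °C for 1 h and then washed off. The array had been made double-stranded by primer extension with Cy5-dUTP and blocked with 2% BSA. The proteins were transcription factors fused N-terminally to polyhistidine and DsRed, expressed in E. coli BL21-CodonPlus and purified on Ni–NTA. The binding signal is per-feature fluorescence intensity (arbitrary units) from an Axon 4000B scanner.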

Sequence	binding signal
ATCCATTCAAAAAGTGGTCACATATACAGCCTGTGTGTTGCGGAGTCACCTAGTGCAG	8070 fluorescence intensity (a.u.)
GATTTTTCTTTTACCGCGTTGATGAATCGGATTCGTTCCGCGGAGTCACCTAGTGCAG	8330 fluorescence intensity (a.u.)
ACTCCTATGAACCATTGCGCCTCACTGCCACACATATCGCCGGAGTCACCTAGTGCAG	9380 fluorescence intensity (a.u.)
TGATAGGAATCTCAACTTTTCGTAGTACATGTTTATACATCGGAGTCACCTAGTGCAG	8240 fluorescence intensity (a.u.)
TTTTCTTTTTTTCAATTTTTTTTACCTTTTCCCAGTTTTCCGGAGTCACCTAGTGCAG	8990 fluorescence intensity (a.u.)
TCTACCGGAATACTGTTACGCTGACGTAGACATGAGTAAGCGGAGTCACCTAGTGCAG	14000 fluorescence intensity (a.u.)
ATTTCCATGTTGTTATACTTGTGCTCCTGGCTGTAAAATACGGAGTCACCTAGTGCAG	9410 fluorescence intensity (a.u.)
AATTTGGGGTTGGTTGTCACATCAGATATACGGATACACACGGAGTCACCTAGTGCAG	10100 fluorescence intensity (a.u.)
CTGTATCTGTTCATGGTAAAATCAATCCGGATATTTCATCCGGAGTCACCTAGTGCAG	9700 fluorescence intensity (a.u.)
AGATCCCCTTTTTTCTCCTTGGCATTTGTGTTGCATTTGTCGGAGTCACCTAGTGCAG	10300 fluorescence intensity (a.u.)
CTCCACCTTCATCTCGGTTTTAAATTTTCCCGGCAAATGTCGGAGTCACCTAGTGCAG	11700 fluorescence intensity (a.u.)
CTCTGGTTGTTCCCACCCTCCCTCTCGCACGCACGGACGTCGGAGTCACCTAGTGCAG	9390 fluorescence intensity (a.u.)
ACCTAGCTTCCATGTTTGACCAATCAAATTAATTACCATTCGGAGTCACCTAGTGCAG	11100 fluorescence intensity (a.u.)
GGGGAAGGAGGATGGGGTTTTGTAATTCGGGATTCGGAGGCGGAGTCACCTAGTGCAG	10800 fluorescence intensity (a.u.)
GAGTAGATGTTGTGCTTGTGGGTTATCTGAGTTGGTTGGTCGGAGTCACCTAGTGCAG	9410 fluorescence intensity (a.u.)
CTTCGCCTCTCTCGTCTCGTCCGAGTTTCCGACCCGACCCCGGAGTCACCTAGTGCAG	8090 fluorescence intensity (a.u.)
TCAGCTCCTCCCTCTCTCCTGCTGCGTTGTTTGGTTGGGCCGGAGTCACCTAGTGCAG	8250 fluorescence intensity (a.u.)
ACGGTGCCGAACGAGCTTGGGGATGGGGACGGCGGCGGGGCGGAGTCACCTAGTGCAG	10200 fluorescence intensity (a.u.)
AACCAAACCCCACCACCACACAAACGCATGCGCGCGCGCTCGGAGTCACCTAGTGCAG	8200 fluorescence intensity (a.u.)
CTGTGTTTTCTATTTTTCTCTGTTTTACATCTATCTTCTTCGGAGTCACCTAGTGCAG	19100 fluorescence intensity (a.u.)
GATTTCCTCTCTAACTGTGTAATTAGTTTTTTCATTTATCCGGAGTCACCTAGTGCAG	9550 fluorescence intensity (a.u.)
AGGGTGTGTTTCGTTTTATGGCCATCTAAAGTCTAACCTTCGGAGTCACCTAGTGCAG	10300 fluorescence intensity (a.u.)
GTTAATTTACTATTCTGTTTTATTCTGGTTGTTGATAATACGGAGTCACCTAGTGCAG	8570 fluorescence intensity (a.u.)
CCCCTCGCCTGAGTGCGTGCGCCCGCGGCCGCGCCTCCGCCGGAGTCACCTAGTGCAG	8070 fluorescence intensity (a.u.)
GAACTAGCGTCAAATCACATCGAGACAACATGCGGGCTTTCGGAGTCACCTAGTGCAG	8800 fluorescence intensity (a.u.)
GTGTGGCGGACATGTGGGCCCATGATTTTTATTATTTTTCCGGAGTCACCTAGTGCAG	9790 fluorescence intensity (a.u.)
TTATCAAATTTCTCCCACACGGTTAGTTTCGGCCCATCTACGGAGTCACCTAGTGCAG	8170 fluorescence intensity (a.u.)

Sequence	binding signal
GTCTACTGCTTCACTTCACTTTCACAGTTTCACTGTATGACGGAGTCACCTAGTGCAG	9060 fluorescence intensity (a.u.)
CCTCGTAGCTTTCCATTCCTGGCCACCCATCACTGCCGGACGGAGTCACCTAGTGCAG	9970 fluorescence intensity (a.u.)
ATCTAAAGCACACTTACATATGCGTATCATTCTTGGTTATCGGAGTCACCTAGTGCAG	8250 fluorescence intensity (a.u.)
CCATCACTAGAGCCTTTTGCCTTTGCTTGCACAATTACATCGGAGTCACCTAGTGCAG	8850 fluorescence intensity (a.u.)
CCATGTCGCACTCTTTCTCGCCGGGCCCACACAACACGGCCGGAGTCACCTAGTGCAG	12600 fluorescence intensity (a.u.)
CGTCTCTTTTATCCTTCTTTTTTTTCCCATTTTTCTTTTTCGGAGTCACCTAGTGCAG	11900 fluorescence intensity (a.u.)
GATTTGATAATGTGGTGCTACAGTATACTTTGCTAATGACCGGAGTCACCTAGTGCAG	9710 fluorescence intensity (a.u.)
GGTCTTGGTTTCGTCAGCGCCATGGTGTTGTGTGACTTGTCGGAGTCACCTAGTGCAG	9490 fluorescence intensity (a.u.)
GCTTGTACTCTCCTGGTCCTGGCGTCCTGCCGTCCTTGGCCGGAGTCACCTAGTGCAG	10600 fluorescence intensity (a.u.)
CCCTGAGGCACACGGCGCACTCCTCCTGCCTCGCGTCGCACGGAGTCACCTAGTGCAG	8120 fluorescence intensity (a.u.)
CCCAAAATGCCCCACTACATGCGCCACGCCGCGCGCTTCCCGGAGTCACCTAGTGCAG	9300 fluorescence intensity (a.u.)
ACACACAACTTTTCAGTCATATCGTACCAATTTCAACCCACGGAGTCACCTAGTGCAG	10500 fluorescence intensity (a.u.)
TGAGTGTTTGGTGCGTGTGGTTTCTTGGGAGATCATGTTACGGAGTCACCTAGTGCAG	11100 fluorescence intensity (a.u.)
GAACACTTAACTCGTTTTCACCGGATATGTTCTCGTAGTTCGGAGTCACCTAGTGCAG	9800 fluorescence intensity (a.u.)
CCTCAACCCTTCGTGTTATCTAGTGTCCATATCATTAAATCGGAGTCACCTAGTGCAG	9210 fluorescence intensity (a.u.)
GAACGGTCAAACATGTTTAAAAAAGTCAACGGCGTCAAACCGGAGTCACCTAGTGCAG	14000 fluorescence intensity (a.u.)
GAATCCACCGCATTTTTCCGCCGCCCCACGCGGCGCCACCCGGAGTCACCTAGTGCAG	19700 fluorescence intensity (a.u.)
CCACCTATCATACTCTTCTTCCCTATTCCTCTCTCTCTTCCGGAGTCACCTAGTGCAG	8600 fluorescence intensity (a.u.)
ATGTTGTTCTCTTAATTTTATTTTACACTATCACACCATTCGGAGTCACCTAGTGCAG	9440 fluorescence intensity (a.u.)
CTGACACTGACACTAAGTTCAGTCTTGTACGTTATTTGCACGGAGTCACCTAGTGCAG	8450 fluorescence intensity (a.u.)
GTCCCCTTTCCTCTCGCCGCCGACCTCGTCGGCCGTCTCCCGGAGTCACCTAGTGCAG	8330 fluorescence intensity (a.u.)
CCGGTTTATGTCTTTGTTGCAAACCACATCACCACGAGTTCGGAGTCACCTAGTGCAG	10900 fluorescence intensity (a.u.)
TATATGTATTCTGACTAATTAGTGTTATTTTTGTTGATCACGGAGTCACCTAGTGCAG	8930 fluorescence intensity (a.u.)
AGGGTTTTTTTTGTCACTTTCGTTGTCAGTTTCTTTTTTCCGGAGTCACCTAGTGCAG	14100 fluorescence intensity (a.u.)
GCCACCAATAACACATCGCCACCTCGCAGTCGCATCGTCACGGAGTCACCTAGTGCAG	9520 fluorescence intensity (a.u.)
TTTGCCCGATTTTTGATTTTTGTTTTTTTTGGGTTCTTGGCGGAGTCACCTAGTGCAG	9680 fluorescence intensity (a.u.)
CGCTGGTTCGGCTCCTTCGCTCGGCTCGGCTCCGCCACCGCGGAGTCACCTAGTGCAG	8970 fluorescence intensity (a.u.)

Fetched one by one from the list above:
Sequence	binding signal
AATTTGGGGTTGGTTGTCACATCAGATATACGGATACACACGGAGTCACCTAGTGCAG	10100 fluorescence intensity (a.u.)
CCACCTATCATACTCTTCTTCCCTATTCCTCTCTCTCTTCCGGAGTCACCTAGTGCAG	8600 fluorescence intensity (a.u.)
GGTCTTGGTTTCGTCAGCGCCATGGTGTTGTGTGACTTGTCGGAGTCACCTAGTGCAG	9490 fluorescence intensity (a.u.)
GAACTAGCGTCAAATCACATCGAGACAACATGCGGGCTTTCGGAGTCACCTAGTGCAG	8800 fluorescence intensity (a.u.)
